Assay [1] deals with Flag-TRIM21 (UniProt P19474). As to the kind of experiment: co-IP; truncated constructs of ID1 (pEBG-GST) tested with TRIM21 and truncated constructs of TRIM21 (pcDNA3) tested with ID1; cells not given.
The target in assay [2] is Flag-TRIM21 (UniProt P19474). Description: co-IP; HEK293T cells co-transfected with tagged constructs (for ID1 with TCF3, TCF4 or TCF12: with TRIM21 or control vector); MG132 20 µM 6 h, lysates with primary antibodies and protein A/G magnetic beads overnight at 4 °C, immunoblot.
Assay [3] concerns the target TRIM21 (endogenous) (human (endogenous in KYSE30 and KYSE450)) (UniProt P19474). Description: co-IP; endogenous proteins in KYSE30 and KYSE450 cells; anti-TRIM21 or anti-ID1 antibody for TRIM21 with ID1; for TCF12 with ID1 cells treated with 5 µM Sorafenib or not; MG132 20 µM 6 h, protein A/G magnetic beads, immunoblot.

Protein sequences, listed by entry. Tags and fused reporters are not part of them.
UniProt P19474: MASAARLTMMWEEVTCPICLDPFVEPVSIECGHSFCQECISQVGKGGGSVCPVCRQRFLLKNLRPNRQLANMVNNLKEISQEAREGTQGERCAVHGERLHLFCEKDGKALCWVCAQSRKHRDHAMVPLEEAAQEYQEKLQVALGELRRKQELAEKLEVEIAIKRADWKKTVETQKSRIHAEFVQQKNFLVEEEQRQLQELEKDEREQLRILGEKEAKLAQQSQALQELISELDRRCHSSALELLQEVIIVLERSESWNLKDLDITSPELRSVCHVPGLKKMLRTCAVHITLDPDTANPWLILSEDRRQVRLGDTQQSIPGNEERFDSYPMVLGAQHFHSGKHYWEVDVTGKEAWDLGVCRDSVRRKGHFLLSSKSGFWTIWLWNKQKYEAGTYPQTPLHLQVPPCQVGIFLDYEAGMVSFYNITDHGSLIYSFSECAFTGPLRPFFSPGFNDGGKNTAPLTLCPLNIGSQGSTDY

Results are given in words; binding and its absence hold for the method and conditions named. In cells and extracts the contact can be indirect. Some results given as binding are weak or reduced against the parent protein; the word gives no strength. For part of these data: Sequences can lack the tags named with a protein.

B1: ID1#2 (basic helix-loop-helix (bHLH) domain) (domain or fragment, UniProt P41134 53-105)
chain: LPALLDEQQVNVLLYDMNGCYSRLKELVPTLPQNRKVSKVEILQHVIDYIRDL
Turning to B1, the binding entry with Flag-TRIM21 [1] is listed as “binds”.

B2: Myc-ID1 (protein, UniProt P41134 1-155)
chain: MKVASGSTATAAAGPSCALKAGKTASGAGEVVRCLSEQSVAISRCAGGAGARLPALLDEQQVNVLLYDMNGCYSRLKELVPTLPQNRKVSKVEILQHVIDYIRDLQLELNSESEVGTPGGRGLPVRAPLSTLNGEISALTAEAACVPADDRILCR
Turning to B2, the binding entry in the assay with Flag-TRIM21 [2] is recorded as “binds”.

B3: ID1 (endogenous) (protein, UniProt P41134 1-155)
chain: MKVASGSTATAAAGPSCALKAGKTASGAGEVVRCLSEQSVAISRCAGGAGARLPALLDEQQVNVLLYDMNGCYSRLKELVPTLPQNRKVSKVEILQHVIDYIRDLQLELNSESEVGTPGGRGLPVRAPLSTLNGEISALTAEAACVPADDRILCR
As to B3, the binding result in assay [3] is reported as “binds”.

(Values after article PMC12462935.)
